Reference: article PMC7949122 (The Journal of Biological Chemistry, 2021)
No constants are given. Whether binding was seen depends on the method and setting. Binding seen in cells or lysates may run through a third protein. Where a sequence is shown, tags or fusion partners need not be part of it.

Target: T1, B1R^Flag-VC (human) (UniProt P46663)
T1 sequence: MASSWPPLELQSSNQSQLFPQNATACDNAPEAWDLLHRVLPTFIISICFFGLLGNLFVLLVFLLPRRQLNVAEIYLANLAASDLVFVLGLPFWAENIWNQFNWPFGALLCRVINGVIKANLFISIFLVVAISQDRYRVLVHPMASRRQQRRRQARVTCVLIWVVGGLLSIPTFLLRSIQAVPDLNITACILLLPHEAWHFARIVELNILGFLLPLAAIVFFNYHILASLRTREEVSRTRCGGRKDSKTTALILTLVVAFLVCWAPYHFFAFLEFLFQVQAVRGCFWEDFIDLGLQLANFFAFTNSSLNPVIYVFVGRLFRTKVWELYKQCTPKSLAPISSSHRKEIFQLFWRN
Assay: split reporter; BiFC with split Venus (VN amino acids 1-210, VC amino acids 210-238) in cotransfected HeLa cells grown 24 h, fixed, confocal microscopy

binding: no binding
Substance: VN-AltB2R^HA (human)
